Measured values from patent US20100197768A1.
No constants are given. Whether binding was seen depends on the method and setting. In cells and extracts the contact can be indirect. Some entries that bind do so weakly or less than the wild type. Sequences can lack the tags named with a protein.

Legend:
[1] = target: HA-hA3G (human), Q9HC16; assay: co-IP with V5 antibody, HA western, RNase A treated 293T extracts; conditions: remark: other sources report otherwise
[2] = target: HA-hA3G (human), Q9HC16; assay: co-IP with V5 antibody, HA western (FIG. 9b); conditions: remark: other sources report otherwise

binding [1]: binds
binding [2]: binds
B1: EGFP-V5-hA3G, Q9HC16 1-384 (enzyme, human, UniProt Q9HC16 1-384, looked up, not shown: large carriers)
chain: MKPHFRNTVERMYRDTFSYNFYNRPILSRRNTVWLCYEVKTKGPSRPPLDAKIFRGQVYSELKYHPEMRFFHWFSKWRKLHRDQEYEVTWYISWSPCTKCTRDMATFLAEDPKVTLTIFVARLYYFWDPDYQEALRSLCQKRDGPRATMKIMNYDEFQHCWSKFVYSQRELFEPWNNLPKYYILLHIMLGEILRHSMDPPTFTFNFNNEPWVRGRHETYLCYEVERMHNDTWVLLNQRRGFLCNQAPHKHGFLEGRHAELCFLDVIPFWKLDLDQDYRVTCFTSWSPCFSCAQEMAKFISKNKHVSLCIFTARIYDDQGRCQEGLRTLAEAGAKISIMTYSEFKHCWDTFVDHQGCPFQPWDGLDEHSQDLSGRLRAILQNQEN
